Measurements reported in PubChem BioAssay AID1224826 (NIAID, 2016)
Aim: 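Regulators of Tlr4 signalling leading to Tnf-alpha expression in macrophages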 (primary screen). Cells: RAW264.7 G9 macrophages from mouse bearing reporters for p65 (GFP) and the Tnf promoter (mCherry). Reagent: siRNA pool against mouse genes, 100 nM. Time to read-out: 16 h of LPS stimulation, after 2 days of siRNA transfection. Challenge: bacterial lipopolysaccharide (Salmonella minnesota R595), 10 ng/ml. Measured: 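Imaged Tnf reporter mCherry in nuclei, minus background, normalised per plate to the median and expressed as robust z-scores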. Scale: Tnf reporter robust z-score: higher = stronger Tnf promoter reporter signal after LPS. Hit rule: 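a well counts as active at a score of -1.3 or below (Tlr4 knock-down control median) or above 3 (raised signal); controls and wells holding fewer than 50 cells are excluded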. Calls: active = Tnf reporter clearly lowered or raised; inactive = no clear change in Tnf reporter.
This is a random part of about 17,000 reagents. Of all reagents, about 1,110 (6.6%) got an active call. 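Active means lowered or raised reporter signal; replicate intensities are raw and not normalised per plate.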 Reagents against one gene are numbered here. Further read-outs or replicates are left out here. No sequences are given here.

The first 4 records, to show the layout:
Target gene | reagent | Tnf reporter robust z-score | fewer than 50 cells in well | Outcome
Limk1 (LIM domain kinase 1) | 1 | 0.3 | enough cells in well | inactive
Cdc45 (cell division cycle 45) | 1 | -0.33 | enough cells in well | inactive
Tor2a (torsin family 2, member A) | 1 | -0.29 | enough cells in well | inactive
9230109A22Rik (RIKEN cDNA 9230109A22 gene) | 1 | 2.9 | enough cells in well | inactive

The listing, from the first entry:
Target gene | reagent | Tnf reporter robust z-score | fewer than 50 cells in well | Outcome
Limk1 (LIM domain kinase 1) | 1 | 0.3 | enough cells in well | inactive
Cdc45 (cell division cycle 45) | 1 | -0.33 | enough cells in well | inactive
Tor2a (torsin family 2, member A) | 1 | -0.29 | enough cells in well | inactive
9230109A22Rik (RIKEN cDNA 9230109A22 gene) | 1 | 2.9 | enough cells in well | inactive
Mtss1 (MTSS I-BAR domain containing 1) | 1 | -0.82 | enough cells in well | inactive
Slc10a6 | 1 | 1.92 | enough cells in well | inactive
Nipa1 | 1 | – | fewer than 50 cells per well; well left out of calls | inactive
Or4d5 (olfactory receptor family 4 subfamily D member 5) | 1 | 0.49 | enough cells in well | inactive
Krtap6-2 (keratin associated protein 6-2) | 1 | -0.22 | enough cells in well | inactive
H2-M10.4 (histocompatibility 2, M region locus 10.4) | 1 | 1.91 | enough cells in well | inactive
Galnt3 (polypeptide N-acetylgalactosaminyltransferase 3) | 1 | 0.77 | enough cells in well | inactive
Krt23 (keratin 23) | 1 | 0.55 | enough cells in well | inactive
Ppp1r2 (protein phosphatase 1, regulatory inhibitor subunit 2) | 1 | 0.89 | enough cells in well | inactive
Ccdc87 (coiled-coil domain containing 87) | 1 | – | fewer than 50 cells per well; well left out of calls | inactive
Khdrbs3 | 1 | 2.62 | enough cells in well | inactive
Trim29 (tripartite motif-containing 29) | 1 | 2.86 | enough cells in well | inactive
Pmepa1 (prostate transmembrane protein, androgen induced 1) | 1 | – | fewer than 50 cells per well; well left out of calls | inactive
Rps12 (ribosomal protein S12) | 1 | – | fewer than 50 cells per well; well left out of calls | inactive
Fbxo24 (F-box protein 24) | 1 | -0.47 | enough cells in well | inactive
Zbtb37 (zinc finger and BTB domain containing 37) | 1 | 0.82 | enough cells in well | inactive
Or13c25 (olfactory receptor family 13 subfamily C member 25) | 1 | 0 | enough cells in well | inactive
Or10d1 (olfactory receptor family 10 subfamily D member 1) | 1 | 0.78 | enough cells in well | inactive
Mnd1 (meiotic nuclear divisions 1) | 1 | -1.39 | enough cells in well | active
Gstt1 (glutathione S-transferase, theta 1) | 1 | -0.76 | enough cells in well | inactive
Casp8ap2 (caspase 8 associated protein 2) | 1 | – | fewer than 50 cells per well; well left out of calls | inactive
Ch25h (cholesterol 25-hydroxylase) | 1 | -1.16 | enough cells in well | inactive
Ehmt2 (euchromatic histone lysine N-methyltransferase 2) | 1 | -0.42 | enough cells in well | inactive
Arl6ip5 (ADP-ribosylation factor-like 6 interacting protein 5) | 1 | -0.3 | enough cells in well | inactive
Lrrn2 (leucine rich repeat protein 2, neuronal) | 1 | 2.55 | enough cells in well | inactive
Or5h18 (olfactory receptor family 5 subfamily H member 18) | 1 | -0.24 | enough cells in well | inactive
Zfp772 (zinc finger protein 772) | 1 | 0.35 | enough cells in well | inactive
Ndn (necdin, MAGE family member) | 1 | 0.1 | enough cells in well | inactive
Pdlim7 (PDZ and LIM domain 7) | 1 | -0.56 | enough cells in well | inactive
Mogat1 (monoacylglycerol O-acyltransferase 1) | 1 | 2.78 | enough cells in well | inactive
Hspg2 (perlecan (heparan sulfate proteoglycan 2)) | 1 | -0.17 | enough cells in well | inactive
Nono (non-POU-domain-containing, octamer binding protein) | 1 | -0.49 | enough cells in well | inactive
Cd5 (CD5 antigen) | 1 | -0.53 | enough cells in well | inactive
Tarm1 (T cell-interacting, activating receptor on myeloid cells 1) | 1 | 0.43 | enough cells in well | inactive
Hnrnph1 (heterogeneous nuclear ribonucleoprotein H1) | 1 | -1.82 | enough cells in well | active
Mpc1 | 1 | -0.75 | enough cells in well | inactive
Fancg (Fanconi anemia, complementation group G) | 1 | -0.01 | enough cells in well | inactive
Ncam1 (neural cell adhesion molecule 1) | 1 | -0.09 | enough cells in well | inactive
2610528J11Rik (RIKEN cDNA 2610528J11 gene) | 1 | – | fewer than 50 cells per well; well left out of calls | inactive
Arhgef25 (Rho guanine nucleotide exchange factor 25) | 1 | -1.28 | enough cells in well | inactive
Kdm1a (lysine (K)-specific demethylase 1A) | 1 | 0.56 | enough cells in well | inactive
Tsks (testis-specific serine kinase substrate) | 1 | 1.13 | enough cells in well | inactive
Csrnp2 (cysteine-serine-rich nuclear protein 2) | 1 | -1.34 | enough cells in well | active
Nap1l3 (nucleosome assembly protein 1-like 3) | 1 | 0.98 | enough cells in well | inactive
Or6c205 (olfactory receptor family 6 subfamily C member 205) | 1 | 0.54 | enough cells in well | inactive
Or6c205 (olfactory receptor family 6 subfamily C member 205) | 2 | 1.56 | enough cells in well | inactive
Nfrkb (nuclear factor related to kappa B binding protein) | 1 | -0.01 | enough cells in well | inactive
Or5ap2 (olfactory receptor family 5 subfamily AP member 2) | 1 | 1.09 | enough cells in well | inactive
Lrrfip1 (leucine rich repeat (in FLII) interacting protein 1) | 1 | -0.09 | enough cells in well | inactive
Dctn4 (dynactin 4) | 1 | -0.91 | enough cells in well | inactive
Cd40lg (CD40 ligand) | 1 | 0.93 | enough cells in well | inactive
Gas2l1 (growth arrest-specific 2 like 1) | 1 | 0.15 | enough cells in well | inactive
Prkg2 (protein kinase, cGMP-dependent, type II) | 1 | 1.72 | enough cells in well | inactive
Rab4a (RAB4A, member RAS oncogene family) | 1 | -0.08 | enough cells in well | inactive
